Test system: fascia fibroblasts
Experiment: Fascia invasion assay (ex vivo fascia 3D Matrigel culture)
Assay type: cell-based, mouse

Cc1cc(/C=C/c2ccc3cc(N(C)C)ccc3[n+]2C)c(C)n1-c1ccccc1 [Pyrvinium pamoate]
toxic effects to fascia tissues: toxic effects
